Experimental data: PubChem BioAssay AID743121 (NCATS, 2013)
Purpose: 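Genes whose silencing strengthens cell killing by camptothecin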 (primary screen). System: MDA-MB-231 cells, a human breast cancer line. Reagent: single siRNA against human genes, 20 nM siRNA (0.8 pmol per well). Duration: 120 h (drug added 48 h after transfection, read 72 h later). Conditions: camptothecin 20 nM (about EC30) for 72 h; vehicle 0.1% DMSO in parallel plates. Read-out: 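Cell viability by ATP luminescence (CellTiter-Glo) as % of non-targeting siRNA wells, and the log2 ratio of viability without drug over viability with camptothecin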. Reading the numbers: log2 vehicle/camptothecin viability: higher = stronger sensitisation to camptothecin. Active means: 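Each gene scored by redundant siRNA activity (RSA) over its individual siRNA ratios; a gene is called active at p < 0.001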.
This is an unselected part of about 26,000 reagents. 167 of them (0.63%) count as active. 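Calls are per gene from RSA p-values that are not deposited; an individual active-marked siRNA can sensitise only weakly.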 Entries without a mark were called inactive. The numbers tell different reagents against one gene apart. Further read-outs or replicates are left out here.

log2 vehicle/camptothecin viability, by gene and reagent
AIF1 (allograft inflammatory factor 1): #1 0.202; #2 -0.0503; #3 -0.412; #4 -0.097
EGR1 (early growth response 1): #1 -0.186; #2 0.16; #3 -0.0738; #4 -0.193
KCNV1: #1 0.207; #2 0.11; #3 -0.719; #4 0.147
CCM2L (CCM2 like scaffold protein): #1 -0.0544; #2 0.163; #3 0.273; #4 -0.361
RYBP (RING1 and YY1 binding protein): #1 -0.0528; #2 0.201; #3 -0.0379; #4 -0.0711
PREPL (prolyl endopeptidase like): #1 -0.25; #2 -0.0512; #3 -0.162; #4 -0.423
ZNF606 (zinc finger protein 606): #1 -0.312; #2 -0.0366; #3 0.211; #4 -0.0208
BNIP3 (BCL2 interacting protein 3): #1 -0.568; #2 -0.148; #3 0.396; #4 -0.16
NHERF4 (NHERF family PDZ scaffold protein 4): #1 -0.0773; #2 0.0512; #3 0.237

No new results follow: 9 of the entries above.
log2 vehicle/camptothecin viability, by gene and reagent
KCNV1: #3 -0.719; #4 0.147
CCM2L (CCM2 like scaffold protein): #1 -0.0544; #2 0.163; #3 0.273; #4 -0.361
RYBP (RING1 and YY1 binding protein): #1 -0.0528; #2 0.201; #3 -0.0379

The results go on:
log2 vehicle/camptothecin viability, by gene and reagent
IGSF21 (immunoglobin superfamily member 21): #1 0.0512; #2 -0.35; #3 0.00328; #4 -0.00332
HRH4 (histamine receptor H4): #1 -0.152; #2 -0.21; #3 -0.387; #4 -0.371
PTPN12 (protein tyrosine phosphatase non-receptor type 12): #1 0.0884; #2 0.52; #3 -0.281; #4 -0.31
ACOX1 (acyl-CoA oxidase 1): #1 0.308; #2 -0.401; #3 0.0861; #4 -0.305
HERPUD2 (HERPUD family member 2): #1 0.021; #2 0.0617; #3 -0.188; #4 -0.115
REEP5 (receptor accessory protein 5): #1 -0.293; #2 -0.317; #3 0.00336; #4 -0.266
CELSR1 (cadherin EGF LAG seven-pass G-type receptor 1): #1 -0.064; #2 -0.255; #3 -0.329; #4 -0.441
PPP1R12C (protein phosphatase 1 regulatory subunit 12C): #1 0.276; #2 -0.12; #3 1.05; #4 0.00758
LYPD1 (LY6/PLAUR domain containing 1): #1 0.107; #2 0.449; #3 0.112
